The structures given here were assigned with low confidence; some may be wrong.

Protein sequences, listed by entry. Tags and fused reporters are not part of them.
UniProt Q8N884, whole entry: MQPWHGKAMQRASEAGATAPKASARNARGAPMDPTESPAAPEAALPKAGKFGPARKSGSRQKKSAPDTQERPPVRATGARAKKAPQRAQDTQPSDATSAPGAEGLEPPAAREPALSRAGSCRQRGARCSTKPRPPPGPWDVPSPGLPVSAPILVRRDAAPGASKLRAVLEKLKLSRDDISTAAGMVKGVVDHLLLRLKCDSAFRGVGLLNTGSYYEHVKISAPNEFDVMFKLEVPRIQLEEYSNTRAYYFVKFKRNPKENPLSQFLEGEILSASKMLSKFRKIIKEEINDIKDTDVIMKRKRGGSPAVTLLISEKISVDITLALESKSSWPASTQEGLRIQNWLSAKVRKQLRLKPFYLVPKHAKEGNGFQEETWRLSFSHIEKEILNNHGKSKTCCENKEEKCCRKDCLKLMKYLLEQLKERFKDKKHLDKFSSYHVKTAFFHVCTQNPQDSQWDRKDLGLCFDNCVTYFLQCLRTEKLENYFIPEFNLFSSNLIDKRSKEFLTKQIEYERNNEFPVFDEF

The target of one test is Human cGAS enzyme (Homo sapiens (Human), UniProt Q8N884). Kind of test: Human cGAS enzyme assay (hcGAS IC50, in vitro), cGAMP formation by RapidFire MS.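 Note: recombinant human cGAS activated by 45 bp dsDNA with 30 µM each ATP and GTP, 90 min, cGAMP vs cyclic-di-GMP standard by MS, 8-point titration from 10 µM.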 In kind it is biochemical. The following applies: read-out: hcGAS IC50; Table 1.
Test [1] concerns the target cellular cGAS activity in baculovirus-stimulated THP1-Dual cells (Homo sapiens (Human), UniProt Q8N884). Kind of test: Human cGAS cell assay (THP1(vir) IC50): IFN induction in virus-stimulated THP1-Dual cells, IRF Lucia luciferase reporter.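 Note: Eight-point dilution series starting at 10 µM, 1% DMSO, 18 h at 37 °C, luminescence read-out, virus-free wells as 0% and DMSO-treated virus-stimulated wells as 100%.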 In kind it is cell-based. The following applies: read-out: THP(vir) IC50, Table 1. In general terms: Reporter assays use an easily measured gene product as a stand-in for the process of interest.

The subject of test [2] is pathway directly downstream of cGAS in cGAMP-stimulated THP1-Dual cells. The experiment in a line: cGAMP stimulated counter cell assay (THP1(cGAMP) IC50): IFN induction in cGAMP-stimulated THP1-Dual cells. In kind it is cell-based, human. The following applies: Table 1; for IC50: read-out: THP(cGAMP) IC50, cGAMP-stimulated THP1 cells.
The target of test [3] is cellular cGAS activity in dsDNA-stimulated human whole blood (Homo sapiens (Human), UniProt Q8N884). The experiment in a line: Human whole blood assay (hWB IC50): IFNα2a production after dsDNA transfection.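 Note: IFNα-2a in plasma measured by MSD electrochemiluminescence immunoassay after 22 h at 37 °C, 8-point dilution series from 10 µM top concentration, DMSO wells as controls.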 In kind it is cell-based. The following applies: read-out: hWB IC50, Table 1.

As usually defined, the IC50 is the concentration needed to halve the response being measured. As for `C[C@H]1CN2CC[C@]1(F)c1cc(Cl)cnc1O[C@H]1C[C@@H](C(=O)O)N(C1)c1nc(nc3c1oc1ccccc13)C(F)(F)C(=O)N(C)CCCC2=O`, the IC50 on Human cGAS enzyme is 7.5 nM; in test [1] it was 60 nM; in test [2], above 10000 nM; in test [3], 76 nM. Besides, the “Ratio THP(cGAMP) IC50/ THP(vir) IC50” value in test [2] (selectivity for cGAS inhibition) stood at 165.

`C[C@H]1CN2CC[C@]1(F)c1cc(Cl)cnc1O[C@H]1C[C@@H](C(=O)O)N(C1)c1nc(nc3c1oc1ccccc13)C(F)(F)C(=O)NCCCC2=O`: the IC50 in test [2] is 980 nM.
